Results of single-concentration screens

The values are deposited in ChEMBL (CHEMBL3988442, “University of Dundee, Small-Polar-MMV Screening Library” (2021)).

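Whole-cell growth test on Mycobacterium tuberculosis, read after 4 days in a medium based on cholesterol and the lipid DPPC; the read-out is not stated. Compounds at 50 µM. Direction is inferred from retests: higher values go with more growth inhibition. Of about 69,000 compounds tested this way, about 370 (0.54%) reached 50% or more in at least one test.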

Each number is a percent effect as filed.
How 0% and 100% were set is not recorded. Most values in the screen are low, and negative values occur.
This is an unselected part of the compounds tested.
Two or more numbers in one place are separate tests of the same structure; such repeats can differ widely.

O=C(CN1CCC(c2cc(=O)n3c(n2)CCCCC3)CC1)N1CCCC1 read 0.2518%.
COc1cc(CNC(C)Cn2cccn2)cc(OC)c1OC.Cl (centres unmarked) read -19.66%.
CN(CC(=O)Nc1ccc(Br)cn1)C(=O)C(C)(C)C read -6.938%.
CNC(=O)C(C)(C)NC(=O)c1cc(COc2cccc(C(C)=O)c2)[nH]n1 read -3.199%.
O=C(NCC(=O)N1CCCc2ccccc21)c1c(O)cc(F)cc1F read -1.576%.
N#Cc1cc(N2CCC(CS(N)(=O)=O)CC2)c2ccccc2n1 read 9.453%.
O=C(O)C(F)(F)F.[H][C@@]12COC[C@H](C(=O)N3CCOCC3)[C@]1([H])CN(CC1CCCC1)C2 read 12.17%.
Cc1nn(COc2cccc(F)c2)c(C)c1NC(=O)C1CC1 read -5.23%.
O=C(O)C(F)(F)F.[H][C@]12CC[C@@]3(N=C(CC)NC3=O)[C@@]1([H])CN(Cc1ccc(Cl)cc1)C2 read -1.935%.
Cl.Cl.O=C([C@@H]1CSCN1)N1CCC2(CC1)CNCc1ccccc12 read 4.898%.
O=C(O)C(F)(F)F.[H][C@@]12COC[C@]1(COCC(=O)N(C)C)CN(Cc1sccc1C)C2 read -15.36%.
c1ccc(C2CN(C3CC3)CC3(CCN(Cc4cscn4)CC3)C2)cc1 (centres unmarked) read 50.74%.
O=C(O)C(F)(F)F.[H][C@@]12CCCO[C@]1([H])[C@H](NS(C)(=O)=O)CN(Cc1ccco1)C2 read -1.765%.
Cc1noc2nc(C3CCCN(Cc4ccncc4)C3)cc(C(F)F)c12 (centres unmarked) read -6.518%.
COc1cccc(-c2n[nH]cc2CNC2CCC(O)CC2)c1.Cl (centres unmarked) read 14.31%.
Cc1ccsc1-c1nccn1CCN1CCCCC1CO (centres unmarked) read 7.475% and 2.011%.
CCOc1cccc(NS(=O)(=O)c2cc(C)c(C(=O)O)s2)c1 read 11.83%.
N#CCCN(CCC#N)C(=O)CN(C1CC1)C1CCc2ccccc21 (centres unmarked) read -10.8%.
O=C(CN1CCC(c2ccccc2)C1)NC(=O)NCC(F)(F)F (centres unmarked) read 0.3322%.
[H][C@@]12CCN(C3CCOCC3)C[C@@]1([H])O[C@@H](C(=O)N(C)C)C2 read 5.154%.
CC(NC(=O)CCC(=O)c1cccs1)c1nnc2n1CCCCC2 (centres unmarked) read -21.33%.
O=C(NCc1nncn1-c1ccccc1)C1CC(=O)N(CC2CC2)C1 (centres unmarked) read -5.465%.
Cc1nnc(C(C)NCC2(c3ccc(Cl)cc3)CCOCC2)o1 (centres unmarked) read 19.64%.
Cn1cc(NC(=O)Cc2cccs2)c(=O)n(C)c1=O read -1.182%.
[H][C@]12CC[C@@]3(N=C(C)N(CCOC)C3=O)[C@@]1([H])CN(C(=O)NCC(C)C)C2 read 14.78%.
O=C1C(N2CCOCC2)CCCN1Cc1cccc(C(F)(F)F)c1 (centres unmarked) read 3.798%.
CCC(C(=O)NCC1CCN(c2ccncc2)CC1)N(C)C (centres unmarked) read -7.154%.
COc1ccc2nc(C3CC3)cc(C(=O)NCC(=O)N(C)C)c2c1 read 11.76%.
COCCNC(=O)c1cc(F)ccc1NS(C)(=O)=O read -9.786%.
Cc1nn(C)c(N(C)C)c1CNCc1cccc(Cn2ccnc2)c1 read 3.697%.
COCCN1CCc2c(cnc(-c3ccoc3)c2C(=O)O)C1.O=C(O)C(F)(F)F read -18.86%.
Cc1nnc(NCc2cccnc2OCC(F)(F)F)c(C#N)c1C read 6.903%.
CCn1ccnc1CN(C)Cc1nc(Cc2ccccc2F)no1 read 3.98%.
COC1CCN(C(=O)Nc2cc(C(F)(F)F)c[nH]c2=O)CC1 read 8.126%.
c1cc(CN2CCC(c3nnc4n3CCCCC4)CC2)c2nonc2c1 read -15.49%.

Once more, the final 4:

structure	Percent Effect
Cc1nnc(NCc2cccnc2OCC(F)(F)F)c(C#N)c1C	6.903
CCn1ccnc1CN(C)Cc1nc(Cc2ccccc2F)no1	3.98
COC1CCN(C(=O)Nc2cc(C(F)(F)F)c[nH]c2=O)CC1	8.126
c1cc(CN2CCC(c3nnc4n3CCCCC4)CC2)c2nonc2c1	-15.49